{"source": "patent US5180672A", "about": "“Ascorbate oxidase isolated from Acremonium sp. HI-25 ferm BP-3124” (Asahi Kasei Kogyo Kabushiki Kaisha, priority 1990, dated 1993)", "origin": "cited, not measured here", "tested_on": "ascorbate oxidase from Myrothecium verrucaria, hypha", "settings": "reference Nihon Eiyou-Shokuryou Gakukaishi Vol. 40, No. 1, 47-51 (1987); read-out: K m (L-ascorbate); cited from earlier work", "note": "At least one structure is not confirmed: it was looked up by name or label, or the drawing left a doubt.", "data": [{"smiles": "O=C1O[C@H]([C@@H](O)CO)C(O)=C1O", "note": "[L-ascorbate]", "values": [{"measurement": "Km", "result": 3000, "unit": "µM"}]}]}
